# Screening data, single-dose tests

Protein sequences, listed by entry. Tags and fused reporters are not part of them. Residues count along the entry.
UniProt P9WPC5, whole entry: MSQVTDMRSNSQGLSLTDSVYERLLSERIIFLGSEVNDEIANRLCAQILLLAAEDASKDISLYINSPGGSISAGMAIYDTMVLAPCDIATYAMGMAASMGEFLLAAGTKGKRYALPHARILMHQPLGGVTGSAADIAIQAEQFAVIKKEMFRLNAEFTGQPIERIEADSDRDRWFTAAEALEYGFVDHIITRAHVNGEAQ
UniProt P9WPC3, whole entry partner: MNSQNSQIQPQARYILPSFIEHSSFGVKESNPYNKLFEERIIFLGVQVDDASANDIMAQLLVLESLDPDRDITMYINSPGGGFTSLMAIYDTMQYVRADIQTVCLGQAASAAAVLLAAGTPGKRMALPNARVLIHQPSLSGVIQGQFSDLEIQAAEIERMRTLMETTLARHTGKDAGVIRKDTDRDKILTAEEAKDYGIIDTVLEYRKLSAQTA
UniProt Q4DA54, 1-478: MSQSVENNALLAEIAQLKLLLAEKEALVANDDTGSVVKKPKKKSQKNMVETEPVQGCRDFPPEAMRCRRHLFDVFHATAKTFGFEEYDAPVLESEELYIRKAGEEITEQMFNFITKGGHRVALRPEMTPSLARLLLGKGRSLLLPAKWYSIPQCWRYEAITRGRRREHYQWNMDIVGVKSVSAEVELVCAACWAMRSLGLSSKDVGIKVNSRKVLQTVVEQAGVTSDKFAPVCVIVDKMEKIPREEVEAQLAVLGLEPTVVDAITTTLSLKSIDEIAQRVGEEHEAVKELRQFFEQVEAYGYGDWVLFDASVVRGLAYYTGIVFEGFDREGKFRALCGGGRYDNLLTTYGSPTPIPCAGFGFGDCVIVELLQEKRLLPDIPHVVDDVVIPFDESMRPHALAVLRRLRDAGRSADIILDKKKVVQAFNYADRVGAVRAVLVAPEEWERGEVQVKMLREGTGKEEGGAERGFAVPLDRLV
UniProt P9WNZ1, whole entry: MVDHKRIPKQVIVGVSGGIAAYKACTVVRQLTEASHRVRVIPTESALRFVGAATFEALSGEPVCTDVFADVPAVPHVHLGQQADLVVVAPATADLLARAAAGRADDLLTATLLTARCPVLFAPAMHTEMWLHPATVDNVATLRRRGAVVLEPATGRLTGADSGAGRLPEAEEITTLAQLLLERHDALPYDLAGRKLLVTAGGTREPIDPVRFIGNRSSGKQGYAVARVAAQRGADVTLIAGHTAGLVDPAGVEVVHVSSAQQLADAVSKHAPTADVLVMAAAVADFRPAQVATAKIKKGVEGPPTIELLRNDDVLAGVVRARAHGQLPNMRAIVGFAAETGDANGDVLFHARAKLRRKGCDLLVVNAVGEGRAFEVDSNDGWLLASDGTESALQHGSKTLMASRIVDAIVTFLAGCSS

A: 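ClpP1P2, Mycobacterium tuberculosis (UniProt P9WPC5 and UniProt P9WPC3). Protease assay of ClpP1P2, read by the AMC dye that it sets free. Tested at 50 µM. Direction is inferred from only a few compounds that gave an IC50; most scored high, so higher reads as stronger inhibition. Most other retested compounds had strongly negative values. Of about 69,000 compounds tested this way, about 10 (0.015%) reached 50% or more in at least one test.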
B: 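Assay of Toxoplasma gondii numbers, read through their beta-galactosidase reporter with a colour substrate. Compounds at 10 µM. Higher reads as fewer parasites (inferred from which compounds were picked for retests). About 67,000 compounds were tested under these conditions; 0.38% (about 260) showed 50% or more at least once.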
C: 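Cell assay of Leishmania donovani living inside macrophages; the read-out is not stated. Tested at 30 µM. Higher reads as stronger inhibition (inferred: compounds with an IC50 in retests scored well above the rest). About 69,000 compounds were tested under these conditions; 1.5% (about 1,000) showed 50% or more at least once.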
D: 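Histidine-tRNA ligase, Trypanosoma cruzi CL Brener (UniProt Q4DA54). Enzyme assay of histidyl-tRNA synthetase; the read-out is not stated. Compounds at 30 µM. Direction is inferred from retests: higher values go with stronger inhibition. About 69,000 compounds were tested under these conditions; 0.045% (about 31) showed 50% or more at least once.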
E: 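Coenzyme A biosynthesis protein CoaBC, Mycobacterium tuberculosis (UniProt P9WNZ1). Enzyme assay of CoaBC with a phosphate dye (Biomol Green) read at 650 nm. Compounds at 30 µM. Higher reads as stronger inhibition, judged from the few compounds that gave an IC50. Most strong results did not repeat in a second test. About 67,000 compounds were tested under these conditions; 0.06% (about 40) showed 50% or more at least once.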

Each number is a percent effect as filed. The controls that fix the scale are not given in the record; negative values are as filed. The compounds are a random part of those screened. Two or more numbers in one place are separate tests of the same structure; such repeats can differ widely. A dash means the value is not listed here; it may have been measured.

| # | Compound | A | B | C | D | E |
|---|---|---|---|---|---|---|
| 1 | `O=C(COCc1ccccc1)N1CCCC1c1noc(C2CC2)n1` (centres undefined) | 6.738% | 7.853% | -28.2% | 2.006% | 4.845% |
| 2 | `CC(C)(C)C(=O)NCCNc1cc(N2CCCC2)ncn1` | 2.821% | -7.088% | 9.568% | 4.598% | 2% |
| 3 | `CN(Cc1ccccc1)C(=O)CSc1ccc2c(c1)OCCO2` | 15.11% | 11.63% | -28.53% | 8.333% | 2.066% |
| 4 | `c1coc(-c2nc(CNC3CCCNC3)no2)c1` (centres undefined) | -14.14% | 21.41% | -8.472% | 14% | -22.98% |
| 5 | `NCC1(c2cccc(C(F)(F)F)c2)CCCCC1` | 2.503% | -2.021% | -1.79% | 2.174% | -1.411% |
| 6 | `Cc1nc(CN2CCCC(CCc3ccccc3C(F)(F)F)C2)co1` (centres undefined) | 7.475% | 3.243% | 20.88% | 2.521% | -14.47% |
| 7 | `COc1cc(C2CC(=O)Nc3c2cnn3C)ccc1O` (centres undefined) | -8.189% | 4.266% | -19.07% & 15.73% | -3.614% | 0.5089% |
| 8 | `CCc1c(C)nc(C)nc1N1C[C@@H](CN(C)CCN(C)C)[C@@H](CO)C1` | -0.1618% | 6.784% | 30.66% | 4.469% | 5.398% |
| 9 | `Cc1cc(C)c2cc(C(=O)N3CCN(Cc4ccco4)CC3)[nH]c2c1` | 7.266% | 5.784% | -27.37% | 6.897% | 12% |
| 10 | `CCc1nc(CN2CCCN(C(=O)c3cn[nH]c3CC)CC2)cs1` | 26.47% | 0.6767% | 12.22% | -3.817% | -1.036% |
| 11 | `CCc1cc(-c2cc[nH]n2)nc(N2CCOCC2)n1` | -6.864% | -10.89% | -6.03% | -0.4292% | 1.794% |
| 12 | `COc1ccc(-c2n[nH]cc2CN(C)Cc2nonc2C)c(F)c1` | -10.55% | -7.591% | 7.617% | 1.064% | 7.631% |
| 13 | `Cc1nc(C)c2c(n1)CCN(C(=O)C1(C#N)CC1)CC2` | 8.459% | 24.78% | 27.03% | -1.031% | -0.2463% |
| 14 | `CCn1c(O)c(C(C)=O)c2cc(C)ccc21` | 1.411% | 11.4% | 26.73% | 2.062% | 1.79% |
| 15 | `O=C1CCNc2ncc(-c3cccc(Cl)c3)cc2CN1C1CC1` | -3.972% | -3.33% | -10.32% | 7.865% | 4.358% |
| 16 | `Cc1nn(C)c(N2CCOCC2)c1CNCc1cccnc1` | -6.528% | -2.825% | -49.66% | 3.509% | 3.33% |
| 17 | `CC(C)[C@H]1COC(=O)N1CC(=O)N1CCCN(C(=O)c2ccoc2)CC1` | -19.24% | -15.67% | 2.886% | -10.63% | -1.615% |
| 18 | `CC1CN(S(=O)(=O)c2ccc(F)cc2F)c2cccnc2O1` (centres undefined) | 1.825% | 2.717% | 30.4% | 2.463% | 7.595% |
| 19 | `Cc1n[nH]c(C2CN(C(=O)CCCn3cccn3)CCO2)n1` (centres undefined) | 14.96% | 8.6% | -50.08% | 5.263% | 8.84% |
| 20 | `Cc1csc(N2CCCN(C(=O)C(C)n3cncn3)CC2)n1` (centres undefined) | -9.34% | 9.923% | 8.149% | 7.602% | 3.061% |
| 21 | `[H][C@@]12COC[C@@H](C(=O)NC)[C@]1([H])CN(C(=O)COc1ccccc1)C2` | - | 13.29% | 19.7% & 21.79% | - | - |
| 22 | `CCOc1ncccc1CNS(=O)(=O)c1ccc2c(c1)CCO2` | -1.083% | 4.1% | 3.35% | 8.287% | -5.357% |
| 23 | `Cc1noc(C)c1CN(C)Cn1c(=O)n(C)c2ccccc21` | -5.739% | -7.519% | 5.674% | 7.212% | 2.417% |
| 24 | `O=C(Nc1cc(-c2ccccn2)no1)C1CC1` | -5.056% | -1.234% | -16.83% | 1.587% | 5.295% |
| 25 | `Cc1ccc(C(N)c2cccc(S(C)(=O)=O)c2)c(C)c1.Cl` (centres undefined) | - | 12.46% | -1.725% | - | - |
| 26 | `O=C(NCc1cc[nH]n1)N(CCCO)C1CCc2ccccc21` (centres undefined) | -3.541% | 0.4902% | -4.948% | 2.642% | -0.6519% |
| 27 | `Cc1n[nH]c(CN2CCN(Cc3ccccc3)[C@@H]3CS(=O)(=O)C[C@@H]32)n1` | -7.594% | - | - | 7.229% | -2.475% |
| 28 | `Cn1c(C(F)(F)F)nn(CCNC(=O)CCc2ccccc2)c1=O` | -8.922% | -4.299% | -3.262% | 4.082% | -1.124% |
| 29 | `O=C(CCC1CCCC1)NCCn1nc(C2CCNC2)c2nccnc21` (centres undefined) | 8.833% | - | - | 0.5405% | -0.8333% |
| 30 | `CCC(CC)C(=O)N1CCC2(C1)CN(c1ccccc1)C(=O)CN2C` (centres undefined) | -6.785% | - | - | 2.732% | 1.673% |
| 31 | `Cc1nn2cccnc2c1C(=O)N1CCCC(n2ccnc2C)C1` (centres undefined) | -18.42% | -13.8% | -34.24% | 1.153% | 21.59% & 15.98% |
| 32 | `Cc1cnn(CCNCc2ccccc2OCc2ccncc2)c1` | -36.41% | -19.13% | 40.26% | 5.634% | 11.07% |
| 33 | `O=C(O)C(F)(F)F.[H][C@@]12COC[C@]1(COC)CN(Cc1cc(OC)cc(OC)c1)C2` | - | -1.022% | 18.19% | - | - |
| 34 | `CNC(=O)N(C)CC1(c2ccc(Br)cc2)CC1` | 0.53% | -0.7308% | 14.62% | 2.632% | -0.1156% |
| 35 | `CC(C)Cc1ncc2c(n1)CN(c1cc(N3CCCC3)nc(N)n1)C2` | 2.226% | -10.37% | 6.751% | 6.186% | -0.6593% |
| 36 | `O=C(O)C(F)(F)F.[H][C@@]12COC[C@]1(CNS(=O)(=O)C1CC1)CN(c1ncc(F)cn1)C2` | - | -3.099% | -21.87% | - | - |
| 37 | `CC(C(=O)NCc1ccc(N2CCNC(=O)C2)cc1)c1cccs1` (centres undefined) | -18.25% | -1.597% | 0.9965% | 11.49% | -2.194% |
| 38 | `CN(C)CCNc1ccc(-c2nc(COc3ccccc3)no2)cn1` | -2.285% | 9.074% | 58.19% | 1.02% | -36.07% |
| 39 | `COCCNS(=O)(=O)c1cccc2c1CN(C(=O)c1ccccc1)CC2` | -5.816% | 0.5816% | -31.96% | 4.878% | -8.439% |
| 40 | `CCc1cnc(NC(=O)NC2CCN(C)CC2)s1` | -13.29% | -4.153% | -30.24% | 0.5525% | -7.282% |
| 41 | `[H][C@]12CN(Cc3ccsc3)CC[C@@]1(O)CCN(C(=O)COC)C2` | - | 2.243% | 34.78% | - | - |
| 42 | `NC(=O)C1CCCN1c1cc(N2CCc3ccccc3C2)ncn1` (centres undefined) | -6.207% | 0.4632% | 27.69% | 3.361% | 6.263% |
| 43 | `Cc1nc2cc(C3CCN(Cc4cccc(F)c4F)C3)nn2c(O)c1C` (centres undefined) | 4.596% | - | - | 3.784% | 4.167% |
| 44 | `Cc1cccc(N2CCOCC3(C2)CN(c2cnn(C)c2)C(=O)CO3)n1` (centres undefined) | 4.65% | - | - | -5.028% | 2.545% |
| 45 | `Cc1ccc(C(=O)Nc2ccc(N3CCCC3)cn2)cc1C` | 8.109% | 7.051% | 15.34% | 12.04% | 4.069% |
| 46 | `CC1CN(C(=O)CN(Cc2ccco2)Cc2cccs2)CCO1` (centres undefined) | -51.49% | -15.76% | 25.09% | 10.2% | -1.044% |

5 of the entries, repeated:

{"compound": "Cc1nn2cccnc2c1C(=O)N1CCCC(n2ccnc2C)C1", "stereo": "centres undefined", "A": -18.42, "B": -13.8, "C": -34.24, "D": 1.153, "E": "21.59 & 15.98"}
{"compound": "COc1ccc(-c2n[nH]cc2CN(C)Cc2nonc2C)c(F)c1", "A": -10.55, "B": -7.591, "C": 7.617, "D": 1.064, "E": 7.631}
{"compound": "O=C(CCC1CCCC1)NCCn1nc(C2CCNC2)c2nccnc21", "stereo": "centres undefined", "A": 8.833, "D": 0.5405, "E": -0.8333}
{"compound": "CCc1cnc(NC(=O)NC2CCN(C)CC2)s1", "A": -13.29, "B": -4.153, "C": -30.24, "D": 0.5525, "E": -7.282}
{"compound": "CNC(=O)N(C)CC1(c2ccc(Br)cc2)CC1", "A": 0.53, "B": -0.7308, "C": 14.62, "D": 2.632, "E": -0.1156}

From ChEMBL document CHEMBL3988442, “University of Dundee, Small-Polar-MMV Screening Library” (2021).